Test results taken from patent publication US4046878A, “Daunomycin analogues, their preparation and use” (Societa' Farmaceutici Italia S.p.A., priority 1974, dated 1977).
At least one read-out could not be matched to a standard name with certainty.

Tested on: mouse embryo fibroblast cultures
Experiment: Cell proliferation in uninfected mouse embryo fibroblast cultures (cytotoxic activity)
Conditions: 3 days

For `COc1cccc2c1C(=O)c1c(O)c3c(c(O)c1C2=O)C[C@@](O)(C(=O)CO)C[C@@H]3O[C@H]1C[C@H](N)[C@H](O)[C@H](C)O1` [Adriamycin, reference compound], the “% Cells (control = 100)” value (0.006 γ/ml) was 53%, the “% Cells (control = 100)” value (0.0125 γ/ml) was 30% and the “% Cells (control = 100)” value (0.0250 γ/ml) was 29%.
